Source: US8614236B2 (University of Washington, priority 2006, dated 2013)

Test system: PASMCs
Assay: Hypoxia-induced increase in [Ca2+]i in PASMCs (4% O2)
Assay type: cell-based
Details: Rattus norvegicus, PASMC, from concentration-inhibition plot, read-out: IC50 for hypoxia-induced rise in [Ca^2+]i
Procedure: Intrapulmonary arteries (200-600 μm o.d.) were isolated from male Wistar rats (250-350 g) and cleaned of connective tissue. After the lumen was gently rubbed with a cotton swab to remove the endothelial cells, the arteries were allowed to recover for 30 minutes in cold (4° C.) HBSS containing (in mM): 130 NaCl, 5 KCl, 1.2 MgCl2, 1.5 CaCl2, 10 N-[2-hydroxyethyl]piperazine-N′-[2-ethanesulfonic acid] (HEPES) and 10 glucose, with pH adjusted to 7.2 with 5 M NaOH, followed by 20 minutes in reduced-Ca^2+ (20 μM CaCl2) HBSS at room temperature. […] Following digestion, single smooth muscle cells were dispersed by gentle trituration with a wide-bore transfer pipette in Ca^2+-free HBSS and the cell suspension was placed on 25 mm glass cover slips. […]
Acute hypoxia increases intracellular [Ca^2+] in pulmonary arterial smooth muscle by enhancing capacitative Ca^2+ entry. […] Ratiometric measurement of fluorescence from the dye was performed on a workstation (Intracellular Imaging Inc, Cincinnati, Ohio) consisting of a Nikon TSE 100 Ellipse inverted microscope with epi-fluorescence attachments. The light beam from a xenon arc lamp was filtered at 340 and 380 nm, and focused onto the PASMCS under examination via a 20× fluorescence objective (Super Fluor 20, Nikon). Light emitted from the cell at 510 nm was returned through the objective and detected by a cooled CCD imaging camera. […]

CC(=O)Nc1nnc(S(N)(=O)=O)s1 [AZ, acetazolamide]
IC50: 50 µM
